Laboratory results as given in PubChem BioAssay AID1347076 (National Center for Advancing Translational Sciences (NCATS), 2019).
Where “and” joins values, the source holds several entries; their conditions need not be identical. Equal entries are not always repeated. Screen size: about 400,000 compounds; about 13,000 (3.2%) were called active. The shares of active, inactive and inconclusive entries below differ from those in the screen. Calls come from the whole dose curve; as a rule, active = well fitted cell-killing curve with a large enough effect; inconclusive = small, poorly fitted or top-dose-only effect, or effect the other way; inactive = flat fitted curve, though single readings scatter. Potencies beside an inconclusive call are fits to weak or partial responses and may not hold up.

Assay: qHTS assay for MDR1-selective chemotherapeutics: Primary screen using the drug-selected MDR subline cells KB-V1; note: nearly all actives have a fitted effect of over 60% in size
Details: KB-V1 MDR cells viability, CellTiter-Glo, 72 h; activity change, negative = cytotoxicity: at 46.1 µM (top of the series)
Method in brief: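 Potencies derive from concentration-effect curves fitted to normalized luminescence (CellTiter-Glo) of KB-V1 cells treated for 72 h at 37 degrees C in phenol-red-free DMEM containing 10% FBS.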
% is set by controls: 0 for no effect and ±100 for the full control effect; potency is the fitted concentration of half-maximal effect.

Row | SMILES | Potency | activity change, negative = cytotoxicity
1 | CC(=O)OCC=C1CCC2C3CC(C)C4=CC(=O)CCC4(C)C3C(O)CC12C (stereo unspecified) | inconclusive: 29.1 µM [cytotoxic, single point] | –
2 | COc1ccccc1CNC(=O)C1CCN(S(=O)(=O)c2ccc3c(c2)OCCCO3)CC1 | active: 18.4 µM | –
3 | COc1cccc(CNC(=O)C2CCN(S(=O)(=O)c3ccc4c(c3)CCC(=O)N4)CC2)c1 | inconclusive: 14.6 µM [rising, partial curve] | –
4 | O=C(NC1CCCC1)C(c1ccc(F)cc1)N(C(=O)Cc1cccs1)c1ccc2c(c1)OCCO2 (stereo unspecified) | – | inactive: 12.5%
5 | CCNC(=S)NNC(=O)c1cc(-c2ccccc2C)nc2ccccc12 | active: 16.4 µM | –
6 | Cn1ncc2c(NCCO)nc(Cl)nc21 | inconclusive: 23.1 µM [rising, single point] | –
7 | N#CC(=C1NC(=O)c2ccccc21)c1nc2ccccc2n1CCO | inconclusive: 23.1 µM [cytotoxic, partial curve, poor fit] | –
8 | COc1cc(NC(=O)c2cccs2)c(OC)cc1NC(=O)c1ccco1 | inconclusive: 3.26 µM [cytotoxic, full curve] | –
9 | CN(CC(=O)Nc1cccc(F)c1)C(=O)CN1C(=O)C2CCCCC2C1=O (stereo unspecified) | inconclusive: 20.6 µM [rising, single point] | –
10 | COc1ccccc1CNC(=O)COC(=O)/C=C/c1ccc2c(c1)OCO2 | – | inactive: 1.83%
11 | Cc1cc(C)c(S(=O)(=O)N2CCCOC2CNC(=O)C(=O)NCc2cccs2)c(C)c1 (stereo unspecified) | active: 18.4 µM | –
12 | CC(Oc1cc2oc(=O)c3c(c2cc1Cl)CCC3)C(=O)N1C[C@H]2C[C@@H](C1)c1cccc(=O)n1C2 (stereo partly specified) | inconclusive: 1.64 µM [cytotoxic, full curve] | –
13 | Cc1ccc(N(C(=O)c2csnn2)C(C(=O)NC2CCCCC2)c2cccnc2)c(C)c1 (stereo unspecified) | inconclusive: 14.6 µM [cytotoxic, partial curve] | –
14 | Cn1c(SCc2ccccc2)nc2c1c(=O)[nH]c(=O)n2C | – | inactive: -23.3%
15 | O=C(CCNC(=O)c1ccc([N+](=O)[O-])cc1)Nc1ccccc1N1CCCC1 | inconclusive: 7.31 µM [cytotoxic, partial curve] | –
16 | Cc1ccc2ncc(C(=O)c3ccc(C)c(C)c3)c(S(=O)(=O)c3ccc(F)cc3)c2c1 | inconclusive: 16.4 µM [cytotoxic, single point] | –
17 | CCOC(=O)[C@H]1[C@H]2COc3ccc(Br)cc3[C@@H]2N2C(=O)N(c3ccccc3)C(=O)[C@@]12C | – | inactive: -2.65%
18 | CC(C)c1ccc(NC(=O)COC(=O)Cn2cnc3c2c(=O)n(C)c(=O)n3C)cc1 | inconclusive: 9.2 µM [rising, partial curve] | –
19 | COc1cc(C)c(S(=O)(=O)n2ccc(C)n2)cc1C | inconclusive: 16.4 µM [cytotoxic, single point] | –
20 | O=C(N[C@H]1C/C=C\C[C@H](CC(=O)N(CCO)Cc2ccccc2)C(=O)NC[C@H](c2ccccc2)OC1=O)OCC1c2ccccc2-c2ccccc21 | – | inactive: -7.47%
21 | O=C(NCCc1csc(-c2cccnc2)n1)c1cccc(Cl)c1 | inconclusive: 9.2 µM [cytotoxic, partial curve] and inconclusive: 32.6 µM [cytotoxic, single point] | –

Row | SMILES | Potency | activity change, negative = cytotoxicity
22 | COc1cccc(CNC(=O)C(=O)N2CCC3(CC2)OCCN3S(=O)(=O)c2ccc(C)cc2)c1 | inconclusive: 18.4 µM [cytotoxic, single point] | –
23 | O=C(N1CCOCC1)N1c2ccccc2Sc2ccccc21 | inconclusive: 18.4 µM [cytotoxic, single point] | –
24 | CCOc1ccccc1N(CC(=O)N1CCc2ccccc2C1)S(C)(=O)=O | inconclusive: 0.0073 µM [cytotoxic, full curve] | –
25 | Cc1nc(SCc2cccc(Cl)c2)nc2c1CCCC2 | inconclusive: 20.6 µM [cytotoxic, single point] | –
26 | COc1ccc([C@H]2C[C@H](O)[C@@H](n3cc(C4CC4)nn3)CN2CC2CCCCC2)cc1 | inconclusive: 29.1 µM [cytotoxic, single point] | –
27 | COc1cc(/C=N/NC(=O)c2ccccc2Cl)ccc1Oc1ccc([N+](=O)[O-])cn1 | inconclusive: 29.1 µM [cytotoxic, single point] | –
28 | COc1ccc(COc2cc(-c3cccc(OC)c3)nc3ccc(NC(=O)c4ccc(N(C)C)cc4)cc23)cc1 | – | inactive: -4%
29 | COc1cccc(C(C(=O)NC2CCCC2)N(CCC(C)C)C(=O)CCC(=O)Nc2cc(C)on2)c1 (stereo unspecified) | inconclusive: 13 µM [cytotoxic, partial curve] | –
30 | CCOC(=O)/C(C#N)=C1/C=CN(Cc2ccccc2)C=N1 | active: 13 µM | –
31 | Cc1ccc(NC(=O)CN2C(=O)N/C(=C/c3ccccc3OCc3cccc(C(=O)O)c3)C2=O)cc1 | inconclusive: 18.4 µM [rising, partial curve, poor fit] | –
32 | Cc1ccc(CNc2nnc(C)c3nnn(Cc4ccc(F)cc4)c23)cc1 | – | inactive: 2.75%
33 | CCc1ccc(-c2nc(CSCC(=O)NCc3ccco3)c(C)o2)cc1 | inconclusive: 13 µM [cytotoxic, partial curve] | –
34 | COc1ccccc1-n1c(C)c2c(OC)cccc(=O)c2c1C | inconclusive: 13 µM [cytotoxic, partial curve, poor fit] | –
35 | CC(=O)N1c2ccc(S(=O)(=O)N3CCCCCC3)cc2CC1C(=O)NCc1cccc(C)c1 (stereo unspecified) | – | inactive: -0.497%
36 | COc1cc(NC(=O)Cn2c(=O)cc(C)c3c(C)nn(-c4ccc(C)cc4)c32)cc(OC)c1 | – | inactive: -3.51%
37 | O=C(O)/C(=C\c1ccc(Cl)cc1)c1ccc(F)cc1 | – | inactive: 8.69%
38 | CC(=O)c1cc(F)c(N2CCN(C(=O)COc3ccccc3F)CC2)cc1C | inconclusive: 0.461 µM [cytotoxic, full curve, poor fit] | –
39 | COc1cccc(CN2C(=O)c3ccccc3Sc3ccc(C(=O)OCc4ccco4)cc32)c1 | inconclusive: 11.6 µM [cytotoxic, partial curve] | –
40 | c1ccc2sc(-c3ccncc3)nc2c1 | inconclusive: 29.1 µM [cytotoxic, single point] | –
41 | COc1ccccc1CN(Cc1cccnc1)S(=O)(=O)c1ccc(-n2cnnn2)c(OC)c1 | inconclusive: 16.4 µM [cytotoxic, single point] | –

2 compounds drawn at random from the list so far, as already listed:
Row | SMILES | Potency | activity change, negative = cytotoxicity
14 | Cn1c(SCc2ccccc2)nc2c1c(=O)[nH]c(=O)n2C | – | inactive: -23.3%
36 | COc1cc(NC(=O)Cn2c(=O)cc(C)c3c(C)nn(-c4ccc(C)cc4)c32)cc(OC)c1 | – | inactive: -3.51%
